The list shows only some results of the screen, not a fair sample: it gathers tests that were run many times, whatever their T/C, doses with no T/C, and many T/C values between a quarter and a half above the control. Further doses and runs are listed elsewhere. T/C: endpoint of the treated group in % of that of the vehicle group. Some doses have a count of surviving animals in place of a T/C: the source files T/C as zero there, which appears to mark a toxic dose or a test without result, not a measured value. Some survivor counts are full or nearly so, which does not show that the dose was tolerated: the source hardly ever lists a survival T/C far under the control, and the zero likely stands for such cases as well. Survivors were counted at the toxicity check, usually on the fifth day, unless a day is given; later deaths do not show. Schedule codes are those of the source, taken here to give the interval after Q, in days (D) or hours (H), and the number of doses after X. Some entries were tested several times; the values are given in rising order. For survival time, the PubChem record calls one and a half times the control and up active, and a quarter to a half above the control has no call in these data; cut-offs in other NCI protocols can differ.
Test system: P388 leukemia ip, CD2F1 mice, survival T/C
Assay: NCI In Vivo Anticancer Drug Screen. Data for tumor model P388 Leukemia (intraperitoneal) in CD2F1 (CDF1) mice
Details: T/C endpoint: median survival time, higher T/C = longer survival

Structure (SMILES): N#Cc1ccccc1NC(=O)Nc1ccc(Cl)cc1Cl
- survivor count (dose: 3.75 mg/kg/injection, schedule: Q01DX005 (ip), vehicle: saline with Tween-80): 6 of 6 on day 9
- survivor count (dose: 7.5 mg/kg/injection, schedule: Q01DX005 (ip), vehicle: saline with Tween-80): 6 of 6 on day 9
- survivor count (dose: 15.0 mg/kg/injection, schedule: Q01DX005 (ip), vehicle: saline with Tween-80): 6 of 6 and 6 of 6 on day 9
- survivor count (dose: 30.0 mg/kg/injection, schedule: Q01DX005 (ip), vehicle: saline with Tween-80): 6 of 6
- survivor count (dose: 60.0 mg/kg/injection, schedule: Q01DX005 (ip), vehicle: saline with Tween-80): 6 of 6
- survivor count (dose: 120.0 mg/kg/injection, schedule: Q01DX005 (ip), vehicle: saline with Tween-80): 6 of 6

Structure (SMILES): C1=C(c2ccccc2)OC(c2ccccc2)=C[P+]1(c1ccccc1)c1ccccc1
- T/C (dose: 0.78 mg/kg/injection, schedule: Q01DX005 (ip), vehicle: saline): 128 % of control
- T/C (dose: 1.56 mg/kg/injection, schedule: Q01DX005 (ip), vehicle: saline): 138 % of control
- T/C (dose: 3.12 mg/kg/injection, schedule: Q01DX005 (ip), vehicle: saline): 130 % of control
- survivor count (dose: 6.25 mg/kg/injection, schedule: Q01DX005 (ip), vehicle: saline): 1 of 5
- survivor count (dose: 12.5 mg/kg/injection, schedule: Q01DX005 (ip), vehicle: saline with Tween-80): 4 of 5
- survivor count (dose: 25.0 mg/kg/injection, schedule: Q01DX005 (ip), vehicle: saline with Tween-80): 0 of 5
- survivor count (dose: 50.0 mg/kg/injection, schedule: Q01DX005 (ip), vehicle: saline with Tween-80): 0 of 5

Structure (SMILES): CNC1C(O)C(OC2C(N)CC(N)C(OC3OC(C(C)O)C(O)C(O)C3N)C2O)OCC1(C)O (stereo unspecified)
- survivor count (dose: 60.0 mg/kg/injection, schedule: Q01DX005 (ip), vehicle: saline): 6 of 6
- survivor count (dose: 120.0 mg/kg/injection, schedule: Q01DX005 (ip), vehicle: saline): 4 of 6
- survivor count (dose: 240.0 mg/kg/injection, schedule: Q01DX005 (ip), vehicle: saline): 4 of 6

Structure (SMILES): Cc1ccc(S(=O)(=O)N/N=C2\COC(C)C2)cc1 (stereo unspecified)
- survivor count (dose: 200.0 mg/kg/injection, schedule: Q01DX005 (ip), vehicle: saline with Tween-80): 6 of 6

Structure (SMILES): CNC(=O)NCCCCCCNC(=O)NC
- survivor count (dose: 200.0 mg/kg/injection, schedule: Q01DX005 (ip), vehicle: Klucel (hydroxypropylcellulose) (HPC)): 0 of 6
- survivor count (dose: 400.0 mg/kg/injection, schedule: Q01DX005 (ip), vehicle: Klucel (hydroxypropylcellulose) (HPC)): 0 of 6

Structure (SMILES): CC(CC(=O)O)C(C(=O)O)C(=O)O (stereo unspecified)
- survivor count (dose: 200.0 mg/kg/injection, schedule: Q01DX005 (ip), vehicle: saline): 5 of 5

Structure (SMILES): O=C(O)CCc1c[nH]c2ccc(N(CCCl)CCCl)cc12
- survivor count (dose: 0.3 mg/kg/injection, schedule: Q04DX003 (ip), vehicle: saline with Tween-80): 5 of 6
- T/C (dose: 0.5 mg/kg/injection, schedule: Q01DX009 (ip), vehicle: saline): 129 % of control
- T/C (dose: 1.0 mg/kg/injection, schedule: Q01DX009 (ip), vehicle: saline): 141 % of control
- survivor count (dose: 5.0 mg/kg/injection, schedule: Q04DX003 (ip), vehicle: saline with Tween-80): 3 of 6
- survivor count (dose: 10.0 mg/kg/injection, schedule: Q04DX003 (ip), vehicle: saline with Tween-80): 1 of 6
- survivor count (dose: 20.0 mg/kg/injection, schedule: Q04DX003 (ip), vehicle: saline with Tween-80): 0 of 6
- survivor count (dose: 100.0 mg/kg/injection, schedule: Q04DX003 (ip), vehicle: saline with Tween-80): 0 of 6
- survivor count (dose: 200.0 mg/kg/injection, schedule: Q04DX003 (ip), vehicle: saline with Tween-80): 0 of 6
- survivor count (dose: 400.0 mg/kg/injection, schedule: Q04DX003 (ip), vehicle: saline with Tween-80): 0 of 6

Structure (SMILES): CC(=O)ON1C(=O)C=CC1=O
- survivor count (dose: 25.0 mg/kg/injection, schedule: Q01DX009 (ip), vehicle: water): 6 of 6
- survivor count (dose: 50.0 mg/kg/injection, schedule: Q01DX009 (ip), vehicle: water): 6 of 6

From PubChem BioAssay AID330 (DTP/NCI, 2004)
